# Library screen at single concentrations

Protein sequences, listed by entry. Tags and fused reporters are not part of them. Residues count along the entry.
UniProt I6X8D2, whole entry: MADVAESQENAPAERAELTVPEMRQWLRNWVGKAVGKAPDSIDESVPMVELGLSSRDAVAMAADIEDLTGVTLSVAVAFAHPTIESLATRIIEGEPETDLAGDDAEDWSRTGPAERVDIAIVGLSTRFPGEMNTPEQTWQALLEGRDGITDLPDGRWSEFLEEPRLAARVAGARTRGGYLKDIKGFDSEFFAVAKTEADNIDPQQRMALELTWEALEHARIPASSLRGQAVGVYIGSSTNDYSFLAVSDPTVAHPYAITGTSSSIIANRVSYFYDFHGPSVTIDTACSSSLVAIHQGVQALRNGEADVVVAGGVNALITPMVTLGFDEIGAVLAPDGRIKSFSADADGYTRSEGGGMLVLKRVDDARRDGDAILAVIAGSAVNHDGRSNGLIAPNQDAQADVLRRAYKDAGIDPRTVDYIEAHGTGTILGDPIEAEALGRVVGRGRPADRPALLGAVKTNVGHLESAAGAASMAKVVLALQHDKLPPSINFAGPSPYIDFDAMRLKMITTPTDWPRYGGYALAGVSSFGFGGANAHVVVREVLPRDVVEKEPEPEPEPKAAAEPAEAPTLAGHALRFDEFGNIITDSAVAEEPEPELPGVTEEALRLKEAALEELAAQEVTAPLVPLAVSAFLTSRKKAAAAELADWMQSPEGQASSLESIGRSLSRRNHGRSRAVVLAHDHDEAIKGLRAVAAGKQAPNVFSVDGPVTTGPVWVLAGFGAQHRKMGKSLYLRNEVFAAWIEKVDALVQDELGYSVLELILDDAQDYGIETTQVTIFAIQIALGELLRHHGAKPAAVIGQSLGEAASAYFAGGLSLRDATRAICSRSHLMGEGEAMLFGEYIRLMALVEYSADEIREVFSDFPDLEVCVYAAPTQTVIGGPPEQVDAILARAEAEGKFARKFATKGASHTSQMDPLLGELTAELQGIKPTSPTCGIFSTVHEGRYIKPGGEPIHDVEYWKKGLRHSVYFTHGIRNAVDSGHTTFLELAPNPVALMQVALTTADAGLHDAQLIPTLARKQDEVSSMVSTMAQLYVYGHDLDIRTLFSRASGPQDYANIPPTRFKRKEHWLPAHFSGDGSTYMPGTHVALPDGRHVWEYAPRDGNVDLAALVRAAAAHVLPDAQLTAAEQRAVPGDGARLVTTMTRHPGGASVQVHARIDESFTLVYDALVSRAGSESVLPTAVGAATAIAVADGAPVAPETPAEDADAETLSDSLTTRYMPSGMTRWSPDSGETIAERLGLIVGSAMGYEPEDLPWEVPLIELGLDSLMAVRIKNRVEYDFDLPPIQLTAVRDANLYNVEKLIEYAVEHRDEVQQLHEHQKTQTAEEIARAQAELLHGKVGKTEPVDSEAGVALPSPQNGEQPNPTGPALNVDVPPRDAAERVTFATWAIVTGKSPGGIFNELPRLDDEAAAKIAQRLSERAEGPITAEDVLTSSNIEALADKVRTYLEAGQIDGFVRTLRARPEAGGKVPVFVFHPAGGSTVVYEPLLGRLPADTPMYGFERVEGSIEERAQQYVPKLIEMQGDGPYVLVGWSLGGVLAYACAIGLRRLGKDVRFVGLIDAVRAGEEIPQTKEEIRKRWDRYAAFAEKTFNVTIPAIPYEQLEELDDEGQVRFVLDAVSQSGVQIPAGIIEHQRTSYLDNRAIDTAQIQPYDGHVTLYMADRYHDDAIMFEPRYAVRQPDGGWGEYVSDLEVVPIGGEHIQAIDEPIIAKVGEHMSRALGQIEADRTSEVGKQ
UniProt Q4DA54, 1-478: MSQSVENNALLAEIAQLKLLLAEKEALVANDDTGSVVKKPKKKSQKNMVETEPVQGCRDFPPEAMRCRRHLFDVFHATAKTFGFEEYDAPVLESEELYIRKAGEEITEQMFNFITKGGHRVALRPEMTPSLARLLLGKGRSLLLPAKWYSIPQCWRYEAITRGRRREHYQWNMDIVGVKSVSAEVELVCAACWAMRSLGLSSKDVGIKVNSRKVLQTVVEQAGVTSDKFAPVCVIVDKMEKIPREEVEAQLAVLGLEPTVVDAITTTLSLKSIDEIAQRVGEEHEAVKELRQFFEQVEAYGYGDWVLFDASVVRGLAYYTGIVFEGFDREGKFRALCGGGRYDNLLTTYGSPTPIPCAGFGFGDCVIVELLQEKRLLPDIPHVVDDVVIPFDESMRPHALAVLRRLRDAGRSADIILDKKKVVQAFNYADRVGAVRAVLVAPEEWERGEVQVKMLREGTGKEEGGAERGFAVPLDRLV
UniProt P9WFT3, whole entry: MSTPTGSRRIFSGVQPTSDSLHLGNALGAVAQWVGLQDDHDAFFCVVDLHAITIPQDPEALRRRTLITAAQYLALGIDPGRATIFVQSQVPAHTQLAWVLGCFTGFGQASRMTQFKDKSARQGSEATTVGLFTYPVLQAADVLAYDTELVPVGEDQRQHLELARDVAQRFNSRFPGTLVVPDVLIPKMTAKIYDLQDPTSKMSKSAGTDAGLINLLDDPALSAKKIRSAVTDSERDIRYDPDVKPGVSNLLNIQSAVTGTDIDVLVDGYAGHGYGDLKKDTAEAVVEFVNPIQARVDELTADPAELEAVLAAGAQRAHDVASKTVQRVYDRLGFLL
UniProt P9WPC5, whole entry: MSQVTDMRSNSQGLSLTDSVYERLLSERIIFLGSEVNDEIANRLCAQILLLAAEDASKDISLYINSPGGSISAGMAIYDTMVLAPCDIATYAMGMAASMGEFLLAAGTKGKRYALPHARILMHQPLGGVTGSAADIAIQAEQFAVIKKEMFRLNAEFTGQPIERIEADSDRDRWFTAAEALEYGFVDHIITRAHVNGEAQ
UniProt P9WPC3, whole entry partner: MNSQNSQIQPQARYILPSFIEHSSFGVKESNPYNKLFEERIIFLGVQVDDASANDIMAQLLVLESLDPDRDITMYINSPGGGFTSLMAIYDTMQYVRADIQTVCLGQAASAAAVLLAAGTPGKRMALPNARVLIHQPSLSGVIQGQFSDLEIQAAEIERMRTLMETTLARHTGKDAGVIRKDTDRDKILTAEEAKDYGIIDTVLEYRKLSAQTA

The values are deposited in ChEMBL (CHEMBL3988442, “University of Dundee, Small-Polar-MMV Screening Library” (2021)).

Pks13 thioesterase: 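Enzyme assay of the thioesterase domain of polyketide synthase 13; the read-out is not stated. Target: Polyketide synthase Pks13, Mycobacterium tuberculosis (UniProt I6X8D2). Concentration: 30 µM. Higher reads as stronger inhibition (inferred from which compounds were picked for retests). Size under these conditions: about 67,000 compounds, about 300 of them at 50% or above in at least one test.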
TcHisRS: 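Enzyme assay of histidyl-tRNA synthetase; the read-out is not stated. Target: Histidine-tRNA ligase, Trypanosoma cruzi CL Brener (UniProt Q4DA54). Tested at 30 µM. Higher reads as stronger inhibition (inferred: compounds with an IC50 in retests scored well above the rest). About 69,000 compounds were tested under these conditions; 0.045% (about 31) showed 50% or more at least once.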
MtTrpRS: 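Tryptophan-tRNA ligase, Mycobacterium tuberculosis (UniProt P9WFT3). Enzyme assay of tryptophanyl-tRNA synthetase; the read-out is not stated. Compounds at 10 µM. Higher most likely means stronger inhibition; the record gives no direction and few retests gave an IC50. Size under these conditions: about 65,000 compounds, about 64 of them at 50% or above in at least one test.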
ClpP1P2: 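ClpP1P2, Mycobacterium tuberculosis (UniProt P9WPC5 and UniProt P9WPC3). Protease assay of ClpP1P2, read by the AMC dye that it sets free. Compounds at 50 µM. Higher reads as stronger inhibition, judged from the few compounds that gave an IC50. Most other retested compounds had strongly negative values. About 69,000 compounds were tested under these conditions; 0.015% (about 10) showed 50% or more at least once.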

The filed quantity is “Percent Effect” (%).
The record does not define 0% and 100%; most values in the screen are far below 50% and negative numbers occur (in some assays of this library far below -100).
The compounds are a random part of those screened.
A dash means the value is not listed here; it may have been measured.

compound,Pks13 thioesterase,TcHisRS,MtTrpRS,ClpP1P2
CN(Cc1c[nH]nc1-c1ccc(F)cc1F)Cc1nccn1C,-4.852,1.734,2.094,-5.374
NC1CCN(C(=O)c2cnc(Cc3c(Cl)cccc3Cl)nc2O)C1 (stereo not drawn),-21.74,1.63,12.09,-9.154
COCCN1CCC(CNC(=O)Nc2ccc(SC(F)(F)F)cc2)C1 (stereo not drawn),-9.034,7.143,4.848,-4.173
CC(CN1CCOCC1)NC(=O)NCCc1ccc(Cl)s1 (stereo not drawn),-,11.67,0.6517,4.257
FC(F)COc1ccccc1NCc1nnsc1Cl,-3.002,8.333,2.659,5.184
COc1ccc(OC)c(C2CCN(C3CCN(C(C)=O)CC3)C2)c1 (stereo not drawn),-34.01,-9.392,0,12.28
CCOc1ccccc1CNC1CCCN(Cc2noc(C)n2)C1 (stereo not drawn),-3.125,4.571,-3.209,-14.13
OC1CCN(CCCn2ccnc2-c2c[nH]cn2)CC1,1.116,5.6,-4.992,-18.63
CN1Cc2ccccc2CC2(CCN(CCO)CC2)C1=O,-24.03,4.444,-,7.71
COc1c(C(=O)NCc2cccnc2)nnn1Cc1ccccc1,-9.731,4.348,-1.684,-6.992
COc1ccc(OCc2nc(C(=O)N3CCCNC(=O)C3)co2)cc1,-1.202,4.598,-3.488,-10.05
CN(C)c1cc(C(=O)N2CCCC2c2cnn(C)c2)ccn1 (stereo not drawn),7.533,1.156,11.67,-18.48
Cc1c[nH]nc1C1CCN(c2cnccn2)C1 (stereo not drawn),-5.159,3.448,5.208,-31.45
CC(C)CNC(=O)c1ccc(NC(=O)NCC2CC2)cc1Cl,6.241,13.79,3.939,4.022
CN1CCN(Cc2ccccc2Cl)CC12CCC(=O)N(CC1CC1)CC2 (stereo not drawn),-,8.163,-0.404,-12.58
COC(=O)c1cccc(S(=O)(=O)NC(=O)CC2CCCC2)c1,-,4.459,8.779,4.028
Fc1ccc(N2CCOC3(COCCN(c4ncccn4)C3)C2)cc1 (stereo not drawn),-18.53,5.102,2.957,3.912
CS(=O)(=O)N1CC[C@H]2[C@H](C[C@@H](Cn3cncn3)N2CC2CC2)C1,-10.33,1.674,-2.403,2.969
O=C(NC[C@H]1CCCC[C@H]1O)c1ccc2nc(-c3ccco3)[nH]c2c1,31.83,12.5,-,-4.979
N#Cc1ccc2c(c1)CN(C(=O)C1CC=CC1)C2c1cnco1 (stereo not drawn),-33.77,10.13,-3.344,-3.348
COc1ncccc1CNC(=O)c1c[nH]c(=O)c(Br)c1,-6.819,2.564,2.808,0.5292
CC(C)[C@H]1CN(C2Cc3ccccc3C2)C[C@@H]1NS(=O)(=O)N(C)C,-19.14,7.143,3.023,-9.93
COc1ccnc(N2CCN(Cc3nc(-c4ccoc4)no3)CC2)c1,-1.099,6.25,-0.4454,-0.5209
CC(=O)N1N=C(c2cccs2)OC1C(=O)Nc1ccc(C)cc1 (stereo not drawn),10.88,7.955,-,-10.7
COC(=O)C(C)N1CCCc2cc(OC)ccc2C1 (stereo not drawn),-15.45,7.895,-1.858,-8.52
CNC(=O)[C@@H]1[C@H]2CN(Cc3ccoc3)CCN2C[C@H]1c1ccccc1,-3.075,4.494,-,-0.2285
O=C(Cc1ccsc1)N1C[C@@H]2COC[C@]2(COc2cccnc2)C1,-15.89,7.407,-,0.7922
CC1(C)OCC2(CO1)CN(C(=O)c1ccccc1Br)C2,-8.653,2.062,-6.459,0.7937
O=C(NCC(O)(c1ccco1)C1CC1)c1ccccc1F (stereo not drawn),-16.17,8.434,3.072,-7.108
Cc1cc(C(=O)N2CCCC(c3cc(=O)nc4n3CCC4)C2)on1 (stereo not drawn),-3.82,3.143,-0.3771,-9.561
CCn1c(N)nc2cc(C(=O)N(C)Cc3cc(C(C)(C)C)n[nH]3)cnc21,-23.25,3.879,-3.286,-16.78
CCc1nccn1C1CCCN(C(=O)c2ccc3c(c2)OCCO3)C1 (stereo not drawn),-1.3,1.724,0,-7.455
OCC1CCCN1c1cc(NCc2ccsc2)ncn1 (stereo not drawn),-13.28,6.553,6.758,-20.92
COCCc1noc(CNC2CCSC2)n1 (stereo not drawn),-4.223,2.479,3.091,2.107
COc1cccc(CN(C)C(=O)CCC(=O)c2ccccc2)c1OC,-8.664,3.061,-1.481,-14.88
O=C(C1CCOCC1)N1CCOCC(Cc2ncccn2)C1 (stereo not drawn),1.82,6.154,-3.465,-2.029
COc1ccc2c(c1)CN(c1nc(C)cc(C)n1)CC2,-43.08,4.891,3.965,2.056
CCc1nc(N)nc(NCc2cnn3cccnc23)c1C,-2.559,10.5,0,-1.909
CN(CC(=O)NS(=O)(=O)c1cccs1)Cc1ccccc1,27.92,5.419,15.5,-8.777
CCN1C(=O)C2(CCOCC2)c2cc(NC(=O)c3ccco3)ccc21,-14.78,-1.674,-5.054,2.844
COC(=O)COc1c(F)cc(Br)cc1C(C)=O,-5.797,8,2.643,-8.071
Cc1cc(N2CCCCC2Cn2nc(C)cc2C)n2ncnc2n1 (stereo not drawn),-41.18,7.895,3.509,-6.314
CC(C)(C)c1cn2c(n1)C(CNCc1ccccn1)CCC2 (stereo not drawn),-4.912,4.762,2.053,-13.31
CCc1cnc(CN2C(=O)CC3(CCSC3)C2=O)o1 (stereo not drawn),-0.0718,1.571,13.99,-3.301
Cc1cc(Cn2cc(C#N)c(=O)c3ccccc32)no1,21.75,3.922,-8.641,0.8023
CN1CCN([C@@H]2CN(C(=O)Cc3ccsc3)[C@@H]3CCCO[C@H]23)CC1,-,6.897,-6.853,-1.977
CC(=O)N1C[C@H]2CCCN(Cc3ccc(C)o3)[C@H]2C1,0.9157,0,10.59,-1.625
CN(Cc1nnc2ccccn12)C(=O)NC1CCCCC1,-29.98,10.83,1.715,3.483
O=C(c1c[nH]c(=O)[nH]1)N1CCc2ccccc21,-12.25,1.935,-6.182,7.248
CC(C)N(C(=O)Cn1nnnc1CCc1ccccc1)C(C)C,-17.88,3.191,1.805,0.3245
Cc1cc(CN2CCOC(CN(C)c3cccnn3)C2)no1 (stereo not drawn),-11.38,1.132,1.642,-3.337
COc1cccc(-c2noc(-c3ccc(NCC(C)C)nc3)n2)c1OC,65.98,10.06,-5.416,-2.523
O=c1c(NCc2ccccn2)c(NCC(O)CN2CCOCC2)c1=O (stereo not drawn),-6.419,2.924,0.3501,-5.449
COCC(=O)Nc1ccc(Sc2nncn2C)c(Cl)c1,-0.1509,3.093,9.084,-4.734
CCNC(=O)c1ccc(NC(=O)N(C)Cc2cc(C)on2)cc1,-3.502,2.609,4.063,-6.863

Some entries from above, unchanged:

{"compound": "CCOc1ccccc1CNC1CCCN(Cc2noc(C)n2)C1", "stereo": "stereo not drawn", "Pks13 thioesterase": -3.125, "TcHisRS": 4.571, "MtTrpRS": -3.209, "ClpP1P2": -14.13}
{"compound": "COC(=O)c1cccc(S(=O)(=O)NC(=O)CC2CCCC2)c1", "TcHisRS": 4.459, "MtTrpRS": 8.779, "ClpP1P2": 4.028}
{"compound": "COc1ccc(OC)c(C2CCN(C3CCN(C(C)=O)CC3)C2)c1", "stereo": "stereo not drawn", "Pks13 thioesterase": -34.01, "TcHisRS": -9.392, "MtTrpRS": 0, "ClpP1P2": 12.28}
{"compound": "Cc1cc(N2CCCCC2Cn2nc(C)cc2C)n2ncnc2n1", "stereo": "stereo not drawn", "Pks13 thioesterase": -41.18, "TcHisRS": 7.895, "MtTrpRS": 3.509, "ClpP1P2": -6.314}
{"compound": "OCC1CCCN1c1cc(NCc2ccsc2)ncn1", "stereo": "stereo not drawn", "Pks13 thioesterase": -13.28, "TcHisRS": 6.553, "MtTrpRS": 6.758, "ClpP1P2": -20.92}
{"compound": "COCCN1CCC(CNC(=O)Nc2ccc(SC(F)(F)F)cc2)C1", "stereo": "stereo not drawn", "Pks13 thioesterase": -9.034, "TcHisRS": 7.143, "MtTrpRS": 4.848, "ClpP1P2": -4.173}
{"compound": "O=C(c1c[nH]c(=O)[nH]1)N1CCc2ccccc21", "Pks13 thioesterase": -12.25, "TcHisRS": 1.935, "MtTrpRS": -6.182, "ClpP1P2": 7.248}